At least one structure is not confirmed: it was looked up by name or label, or the drawing left a doubt.
Columns and labels:
Hsp genes = assay: qRT-PCR of heat-shock-induced Hsp mRNA in NIH3T3 cells; assay type: cell-based, mouse; conditions: 20 μM U0126 or 20 nM AZD6244 for 3 hr, then HS and 4-hr recovery
Procedure: (A) NIH3T3 cells were treated with HS at 43° C. for 30 min, 10 μM tubastatin A for 5 hr, 40 μM VER155008 for 1 hr, 500 nM MG132 for 1 hr, 200 nM 17-DMAG for 1 hr, and 2.5 mM azetidine for 15 min (B) The dual ELK1 reporter system, comprising a serum response element (SRE)-driven secreted embryonic alkaline phosphatase (SEAP) plasmid and a CMV-driven Gaussia luciferase (GLuc) plasmid, was transfected into HEK293T cells. After 24 hr, cells were treatments as in (A) and recovered overnight before measuring reporter activities (mean±SD, n=6, ANOVA). (C and D) NIH3T3 cells were treated with 20 μM U0126 or 20 nM AZD6244 for 3 hr followed by HS and 4-hr recovery. mRNA levels were quantitated by qRT-PCR (mean±SD, n=3, Student's t-test). (E) Immediately after HS, nuclear proteins of NIH3T3 cells treated as in (C) were extracted to measure HSF1-DNA binding by an ELISA-based assay (mean±SD, n=3, ANOVA). […]
Total RNAs were extracted using RNA STAT-60 reagent (Tel-Test, Inc.), and RNAs were used for reverse transcription using a Verso cDNA Synthesis kit (Thermo Fisher Scientific). Equal amounts of cDNA were used for quantitative PCR reaction using a DyNAmo SYBR Green qPCR kit (Thermo Fisher Scientific). Signals were detected by an ABI 7500 Real-Time PCR System (Applied Biosystems). […]

c-MYC, RPL15, RPL3 = assay: Endogenous c-MYC, RPL15 and RPL3 proteins in A2058 cells; assay type: cell-based, human; conditions: AZD6244
Procedure: (A) GFP and GFP-GR plasmids were co-transfected into HEK293T cells followed by treatments with 20 nM AZD6244, 20 μM U0126, or 200 nM 17-DMAG for 4 hr. (B) GFP-GR plasmids were co-transfected into HEK293T cells with HA-Ub-K48 plasmids, which encode a mutant ubiquitin that can be conjugated to protein substrates only via lysine 48. Following treatments with 20 nM AZD6244 or 200 nM 17-DMAG for 4 hr, GFP-GR proteins were precipitated and ubiquitination was detected using anti-HA antibodies. (C) Denatured firefly luciferases were incubated with lysates of A2058 cells treated with DMSO or 20 nM AZD6244 (mean±SD, n=4, ANOVA). (D) A2058 cells were treated with 20 nM AZD6244, and ubiquitinated proteins were detected in both detergent-soluble and -insoluble fractions using Lys48-specific ubiquitin antibodies. (E) A2058 cells stably expressing LacZ or HSF1^S326D were treated with 20 nM AZD6244 for 8 hr. (F) C57BL/6J mice were i.p. injected with DMSO or AZD6244 three times a week for 2 weeks. S: spleen; K: kidney; L: liver. (G) Experimental procedures of MS-based quantitation of ubiquitinated peptides, two technical replicates per treatment. […] (Q) Endogenous RPL15 and RPL3 proteins were detected in A2058 cells treated with 20 nM AZD6244 alone or co-treated with 500 nM MG132. (R) Endogenous RPL15 and RPL3 proteins were detected in A2058 cells stably expressing LacZ or HSF1^S326D with AZD6244 treatment. […]

Cn1cnc2c(F)c(Nc3ccc(Br)cc3Cl)c(C(=O)NOCCO)cc21 [AZD6244, selumetinib]
HS-induced transcription of Hsp genes (Hsp genes): impeded | ubiquitination and total levels of endogenous c-MYC proteins (c-MYC, RPL15, RPL3): reductions in both ubiquitination and total levels
